Test results as given in PubChem BioAssay AID1347131 (National Center for Advancing Translational Sciences (NCATS), 2019).
In all, about 410,000 compounds went through this assay and about 2,000 (0.49%) were called active. Inconclusive results, whose numbers are uncertain, are shown with a selection of clear calls. Calls follow the shape of the full dose curve; tested in HEK293 reporter line. Potencies beside an inconclusive call are fits to weak or partial responses and may not hold up.

assay: qHTS Assay for Foot and Mouth Disease Virus Antivirals: Primary Screen against the MLPCN compound library; conditions: FMDV antiviral cell-based qHTS; series mostly up to 57.9 µM; also: nearly all actives have a fitted effect of over 55% in size
Potency is read from the fitted curve at half-maximal effect.

Structure (SMILES) | Potency
O=C1CCC(C(=O)NCc2ccc3c(c2)OCO3)N1 (stereo not given) | inconclusive: 7.94 µM [inhibitor, partial curve]
CC(C)C(=O)Nc1c2c(nn1-c1ccccc1)CSC2 | inconclusive: 2.82 µM [inhibitor, full curve]
CC1=C(C)C(=O)C(CCCCC#CCCCC#CCO)=C(C)C1=O | inconclusive: 22.4 µM [inhibitor, partial curve, poor fit]
Cc1ccc(CC2CC(=O)N(Cc3ccco3)C2=O)cc1 (stereo not given) | inactive
NC(=O)CSc1nc2c(c(=O)n1-c1ccccc1)C1(CCCCC1)Cc1ccccc1-2 | inconclusive: 20 µM [inhibitor, partial curve, poor fit]
Cn1cnc([N+](=O)[O-])c1S(=O)(=O)Nc1ccccc1 | inconclusive: 22.4 µM [inhibitor, partial curve, poor fit]
Cc1ccc(-c2nc(C)c(C(=O)O)s2)cc1 | active: 25.1 µM
Cc1nc2sc(C(=O)NCc3ccc(Cl)cc3)c(NC(=O)c3ccccc3)c2c(C)c1C | inconclusive: 11.2 µM [inhibitor, partial curve]
COC(=O)C(NC(=O)c1ccc(F)cc1)(Nc1ncc(S(=O)(=O)c2ccc([N+](=O)[O-])cc2)s1)C(F)(F)F (stereo not given) | inconclusive: 12.6 µM [inhibitor, partial curve, poor fit]
O=C(/C=C/c1cccc(C(F)(F)F)c1)N1CCN(c2ccccn2)CC1 | inconclusive: 14.1 µM [inhibitor, partial curve, poor fit]
CC(=O)c1c(C)[nH]c(C(=O)NC(C)c2ccccc2)c1C (stereo not given) | inconclusive: 3.55 µM [inhibitor, full curve]
CCc1c(C)nc(SCC(=O)N2CCN(c3ccccc3OC)CC2)[nH]c1=O | inconclusive: 2 µM [inhibitor, full curve]
Cc1cc(C(=O)Nc2ccc(Cl)c(S(=O)(=O)N3CCOCC3)c2)c2ccccc2n1 | inconclusive: 10 µM [inhibitor, partial curve, poor fit]
CCOC(=O)Cc1csc(NC(=O)COc2ccc(OC)cc2)n1 | inactive
CCOC(=O)c1c(SCCN2CCCC2)n(-c2ccccc2)c(=S)n(-c2ccccc2)c1=O | inconclusive: 20 µM [inhibitor, partial curve, poor fit]
Cc1ccc(C(=O)n2c(N)nc3ccccc32)cc1 | inconclusive: 10 µM [inhibitor, partial curve, poor fit]
Cc1ccc(Nc2nc(N)nc(CN3CCN(c4ccccc4F)CC3)n2)cc1 | inactive
Cn1nnnc1Sc1ncnc2scc(Br)c12 | inconclusive: 22.4 µM [inhibitor, partial curve, poor fit]
CC(=O)Nc1ccc(C(=O)CSc2nnc(-c3ccccc3)n2-c2ccccc2)cc1 | inconclusive: 3.55 µM [inhibitor, full curve]
CC(C)(C)c1nc(N2CCN(C(=O)c3ccco3)CC2)c2nnn(Cc3ccccc3)c2n1 | inconclusive: 28.2 µM [inhibitor, partial curve, poor fit]

Structure (SMILES) | Potency
Cc1cc(C)nc(Nc2n[nH]c(-c3ccccc3N)n2)n1 | inconclusive: 11.2 µM [inhibitor, partial curve]
CCCCCCCCCCCCCCCC[N+](C)(C)CCN(Cc1ccc(OC)cc1)c1ncccn1 | inconclusive: 28.2 µM [inhibitor, partial curve, poor fit]
CCC1CCCCN1CCCCOc1cccc(Cl)c1 (stereo not given) | inactive
CC(C(=O)Nc1cccc(C#N)c1)n1nc(-c2ccccc2)c2c(c1=O)CCCC2 (stereo not given) | inactive
CN1/C(=C\C=N\NC(=O)c2ccc(O)cc2)C(C)(C)c2ccccc21 | inconclusive: 28.2 µM [inhibitor, single point]
CCOc1ccccc1-c1nc(C(N)=O)c2[nH]c(=O)n(-c3cccc(C)c3)c2n1 | inconclusive: 28.2 µM [inhibitor, partial curve, poor fit]
COc1cccc(CNC(=O)c2cc3c(C)nc4ccccc4c3o2)c1 | inconclusive: 22.4 µM [inhibitor, partial curve, poor fit]
CC1=C(C)/C(=N\OS(=O)(=O)c2ccc(C)cc2)C=CC1=O | inconclusive: 20 µM [inhibitor, partial curve, poor fit]
Cc1nc2cc(NC(=O)c3ccc(Br)s3)ccc2s1 | inconclusive: 11.2 µM [inhibitor, single point]
COc1ccc(NC(=O)N2CCN(c3nc(-c4cccc(OC)c4)cs3)CC2)cc1 | inconclusive: 20 µM [inhibitor, partial curve, poor fit]
COc1ccc(CCNc2oc(COc3ccc(Cl)cc3)nc2C#N)cc1OC | inconclusive: 31.6 µM [inhibitor, single point]
CCS(=O)(=O)Nc1ccc(C2=NN(C(=O)c3ccco3)C(c3ccc(Cl)o3)C2)cc1 (stereo not given) | inconclusive: 28.2 µM [inhibitor, partial curve, poor fit]
CCOC(=O)C1CCN(S(=O)(=O)c2cccc(C(=O)Nc3ccccc3)c2)CC1 | inactive
Cc1ccc(C(=O)c2sc(Nc3ccccc3)c(C#N)c2N)cc1 | inconclusive: 22.4 µM [inhibitor, single point]
CC(C)(C)C1=CC(=O)C(=O)C(C(C)(C)C)=C1 | inconclusive: 28.2 µM [inhibitor, partial curve, poor fit]
Brc1ccc(-c2cn3ccccc3n2)s1 | inconclusive: 14.1 µM [inhibitor, single point]
CCN(CC)c1ccc2cc(C(=O)NNC(=O)c3ccc(S(=O)(=O)N4CCCCC4)cc3)c(=O)oc2c1 | inactive
Cc1cc2c(cc1C)N(C(=O)CCl)CC(=O)N2 | inconclusive: 39.8 µM [inhibitor, partial curve, poor fit]
COC(=O)c1ccc(Sc2nnnn2-c2ccccc2)c([N+](=O)[O-])c1 | inconclusive: 20 µM [inhibitor, partial curve, poor fit]
CCCOc1ccc(C(=O)C(CN2CCOCC2)c2ccccc2)cc1 (stereo not given) | inconclusive: 14.1 µM [inhibitor, partial curve, poor fit]

Among those listed so far, these have a tert-butyl group:
Structure (SMILES) | Potency
CC(C)(C)c1nc(N2CCN(C(=O)c3ccco3)CC2)c2nnn(Cc3ccccc3)c2n1 | inconclusive: 28.2 µM [inhibitor, partial curve, poor fit]
CC(C)(C)C1=CC(=O)C(=O)C(C(C)(C)C)=C1 | inconclusive: 28.2 µM [inhibitor, partial curve, poor fit]
